Experimental data as given in the supplement of paper PMC11732987, “Enantioselective OTUD7B fragment discovery through chemoproteomics screening and high-throughput optimisation” (Communications Chemistry, 2025).
The list shows a part of the results. The data scatter; read single values as rough.

Chains of the proteins cited; added tags and fusions are not shown. Lines headed by an entry give the natural chain unless they say otherwise; changes in a name come on top.
UniProt Q9H936: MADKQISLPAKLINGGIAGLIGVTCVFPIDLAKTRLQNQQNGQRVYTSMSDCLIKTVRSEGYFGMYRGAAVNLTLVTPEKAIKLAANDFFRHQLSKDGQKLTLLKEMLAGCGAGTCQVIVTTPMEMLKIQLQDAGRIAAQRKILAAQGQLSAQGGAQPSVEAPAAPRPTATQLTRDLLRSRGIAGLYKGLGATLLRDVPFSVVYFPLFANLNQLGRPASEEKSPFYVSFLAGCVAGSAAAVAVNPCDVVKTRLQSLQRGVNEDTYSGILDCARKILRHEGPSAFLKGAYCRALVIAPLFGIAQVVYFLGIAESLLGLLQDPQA
UniProt Q6P1M0: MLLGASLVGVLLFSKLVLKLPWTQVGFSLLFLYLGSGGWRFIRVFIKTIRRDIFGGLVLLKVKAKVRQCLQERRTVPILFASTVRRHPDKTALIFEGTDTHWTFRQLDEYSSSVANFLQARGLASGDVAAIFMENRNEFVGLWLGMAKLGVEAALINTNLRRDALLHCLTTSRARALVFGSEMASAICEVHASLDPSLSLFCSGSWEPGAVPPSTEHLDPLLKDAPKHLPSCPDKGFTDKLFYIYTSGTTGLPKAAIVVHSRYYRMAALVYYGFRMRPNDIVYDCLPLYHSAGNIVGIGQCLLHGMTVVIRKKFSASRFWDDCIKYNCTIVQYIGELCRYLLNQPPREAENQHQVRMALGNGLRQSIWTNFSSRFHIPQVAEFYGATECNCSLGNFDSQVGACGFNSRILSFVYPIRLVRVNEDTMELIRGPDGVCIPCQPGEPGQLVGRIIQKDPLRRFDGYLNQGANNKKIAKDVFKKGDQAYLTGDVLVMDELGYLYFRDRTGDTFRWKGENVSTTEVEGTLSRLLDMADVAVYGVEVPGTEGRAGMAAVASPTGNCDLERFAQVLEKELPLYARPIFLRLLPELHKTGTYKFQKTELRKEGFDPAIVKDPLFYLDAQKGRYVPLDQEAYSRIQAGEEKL
UniProt Q8IYR2: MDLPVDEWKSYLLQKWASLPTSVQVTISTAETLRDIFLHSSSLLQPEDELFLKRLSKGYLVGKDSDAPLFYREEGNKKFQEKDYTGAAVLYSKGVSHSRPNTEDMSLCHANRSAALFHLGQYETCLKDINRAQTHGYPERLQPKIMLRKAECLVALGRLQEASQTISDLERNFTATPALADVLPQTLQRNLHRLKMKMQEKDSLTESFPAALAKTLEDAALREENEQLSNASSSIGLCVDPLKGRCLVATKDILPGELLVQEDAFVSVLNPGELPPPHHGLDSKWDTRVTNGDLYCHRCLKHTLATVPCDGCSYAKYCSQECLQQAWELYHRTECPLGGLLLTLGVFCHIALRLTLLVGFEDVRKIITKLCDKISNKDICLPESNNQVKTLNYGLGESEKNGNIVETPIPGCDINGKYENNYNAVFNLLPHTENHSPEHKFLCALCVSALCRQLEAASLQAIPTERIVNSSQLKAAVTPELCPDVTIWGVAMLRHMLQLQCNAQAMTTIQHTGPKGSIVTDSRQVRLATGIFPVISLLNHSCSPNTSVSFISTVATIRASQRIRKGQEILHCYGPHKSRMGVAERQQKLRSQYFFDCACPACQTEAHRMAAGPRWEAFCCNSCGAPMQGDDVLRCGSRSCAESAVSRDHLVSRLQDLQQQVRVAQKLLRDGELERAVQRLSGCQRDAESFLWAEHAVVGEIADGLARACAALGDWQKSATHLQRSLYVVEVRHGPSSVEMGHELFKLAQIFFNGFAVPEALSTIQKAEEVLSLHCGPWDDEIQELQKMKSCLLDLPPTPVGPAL
UniProt Q14BN4: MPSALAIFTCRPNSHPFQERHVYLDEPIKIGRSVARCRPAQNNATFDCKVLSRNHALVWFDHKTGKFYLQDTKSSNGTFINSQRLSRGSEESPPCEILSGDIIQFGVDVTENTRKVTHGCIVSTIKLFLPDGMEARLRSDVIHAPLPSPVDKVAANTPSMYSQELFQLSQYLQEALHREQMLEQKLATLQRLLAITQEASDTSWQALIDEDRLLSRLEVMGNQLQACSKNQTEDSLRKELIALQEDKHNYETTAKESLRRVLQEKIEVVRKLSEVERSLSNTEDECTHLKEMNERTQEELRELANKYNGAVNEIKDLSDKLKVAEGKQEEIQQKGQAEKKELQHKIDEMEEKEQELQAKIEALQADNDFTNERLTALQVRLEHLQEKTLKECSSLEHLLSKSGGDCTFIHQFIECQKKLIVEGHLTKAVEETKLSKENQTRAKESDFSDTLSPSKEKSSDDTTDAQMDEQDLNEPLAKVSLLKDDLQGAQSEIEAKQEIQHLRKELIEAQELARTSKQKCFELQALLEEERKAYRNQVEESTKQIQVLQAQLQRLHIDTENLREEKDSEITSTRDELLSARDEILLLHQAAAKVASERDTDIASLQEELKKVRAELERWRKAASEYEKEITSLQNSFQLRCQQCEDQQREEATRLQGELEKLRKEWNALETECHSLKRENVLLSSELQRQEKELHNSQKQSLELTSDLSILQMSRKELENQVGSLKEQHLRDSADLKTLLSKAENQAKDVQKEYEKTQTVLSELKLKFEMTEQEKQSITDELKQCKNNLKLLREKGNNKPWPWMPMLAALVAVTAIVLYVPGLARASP
UniProt P05141: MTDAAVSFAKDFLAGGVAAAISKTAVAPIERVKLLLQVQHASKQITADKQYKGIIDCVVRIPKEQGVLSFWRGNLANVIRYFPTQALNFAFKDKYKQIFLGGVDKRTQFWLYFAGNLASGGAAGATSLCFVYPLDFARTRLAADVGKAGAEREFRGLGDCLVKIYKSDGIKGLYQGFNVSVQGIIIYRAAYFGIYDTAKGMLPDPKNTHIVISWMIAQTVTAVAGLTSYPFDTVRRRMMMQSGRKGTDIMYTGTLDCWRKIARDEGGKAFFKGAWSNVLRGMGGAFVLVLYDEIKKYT
UniProt O75643, whole entry, looked up: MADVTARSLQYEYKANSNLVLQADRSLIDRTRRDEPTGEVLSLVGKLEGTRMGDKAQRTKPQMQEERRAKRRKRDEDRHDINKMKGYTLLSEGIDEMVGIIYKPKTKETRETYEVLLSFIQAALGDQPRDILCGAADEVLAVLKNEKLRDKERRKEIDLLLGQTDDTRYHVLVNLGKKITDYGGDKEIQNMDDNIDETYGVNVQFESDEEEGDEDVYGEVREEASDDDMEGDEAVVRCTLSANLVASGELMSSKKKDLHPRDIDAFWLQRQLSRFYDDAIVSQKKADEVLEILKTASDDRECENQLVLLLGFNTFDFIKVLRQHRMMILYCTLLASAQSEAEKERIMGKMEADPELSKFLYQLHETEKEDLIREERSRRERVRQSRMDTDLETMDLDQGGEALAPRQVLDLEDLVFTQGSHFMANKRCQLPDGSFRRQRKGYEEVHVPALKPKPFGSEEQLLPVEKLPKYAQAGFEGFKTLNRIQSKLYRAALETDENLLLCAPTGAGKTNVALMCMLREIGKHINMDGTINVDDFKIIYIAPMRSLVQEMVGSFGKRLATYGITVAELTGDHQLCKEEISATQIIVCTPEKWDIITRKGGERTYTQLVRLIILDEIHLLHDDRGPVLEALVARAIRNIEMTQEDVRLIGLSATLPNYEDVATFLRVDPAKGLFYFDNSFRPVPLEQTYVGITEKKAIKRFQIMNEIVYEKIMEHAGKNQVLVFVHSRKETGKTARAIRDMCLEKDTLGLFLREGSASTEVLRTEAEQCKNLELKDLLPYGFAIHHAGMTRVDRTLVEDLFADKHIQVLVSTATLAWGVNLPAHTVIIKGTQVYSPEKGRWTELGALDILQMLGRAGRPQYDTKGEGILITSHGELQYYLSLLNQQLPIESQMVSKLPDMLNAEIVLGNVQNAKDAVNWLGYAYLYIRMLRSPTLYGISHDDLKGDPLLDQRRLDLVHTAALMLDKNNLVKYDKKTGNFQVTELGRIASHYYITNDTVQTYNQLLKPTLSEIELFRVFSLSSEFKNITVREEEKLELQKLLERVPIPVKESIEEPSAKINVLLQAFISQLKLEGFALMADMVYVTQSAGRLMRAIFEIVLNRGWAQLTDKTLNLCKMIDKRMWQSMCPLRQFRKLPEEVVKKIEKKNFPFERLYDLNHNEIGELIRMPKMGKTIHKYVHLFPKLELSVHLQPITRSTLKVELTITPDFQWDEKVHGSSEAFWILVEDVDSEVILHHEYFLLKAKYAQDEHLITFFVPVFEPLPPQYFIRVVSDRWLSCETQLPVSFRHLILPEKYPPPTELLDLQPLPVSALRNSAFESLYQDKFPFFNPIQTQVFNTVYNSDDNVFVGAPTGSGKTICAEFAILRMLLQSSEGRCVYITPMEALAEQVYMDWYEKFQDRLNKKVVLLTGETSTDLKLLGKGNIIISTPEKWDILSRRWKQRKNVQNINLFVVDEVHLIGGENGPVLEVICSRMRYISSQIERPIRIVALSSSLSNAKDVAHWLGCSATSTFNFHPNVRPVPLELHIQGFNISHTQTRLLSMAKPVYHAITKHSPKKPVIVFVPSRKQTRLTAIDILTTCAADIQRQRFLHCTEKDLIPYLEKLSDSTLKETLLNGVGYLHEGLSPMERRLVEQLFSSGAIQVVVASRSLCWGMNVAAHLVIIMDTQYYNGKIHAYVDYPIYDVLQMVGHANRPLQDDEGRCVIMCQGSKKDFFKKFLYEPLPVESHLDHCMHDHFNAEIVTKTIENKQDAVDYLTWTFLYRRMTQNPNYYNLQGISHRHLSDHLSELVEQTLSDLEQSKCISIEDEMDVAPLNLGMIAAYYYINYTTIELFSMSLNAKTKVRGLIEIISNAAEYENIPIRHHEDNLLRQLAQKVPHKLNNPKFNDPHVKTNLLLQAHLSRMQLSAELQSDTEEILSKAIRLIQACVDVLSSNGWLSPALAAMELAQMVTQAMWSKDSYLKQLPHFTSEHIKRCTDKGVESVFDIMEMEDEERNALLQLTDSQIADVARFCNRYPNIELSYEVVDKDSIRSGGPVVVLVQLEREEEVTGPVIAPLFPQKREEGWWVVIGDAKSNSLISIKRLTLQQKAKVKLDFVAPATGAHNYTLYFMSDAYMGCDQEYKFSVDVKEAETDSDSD

Compound: ClCC(=O)N[C@H]1CCCc2ccccc12
Test: log2 mean competition ratio of IA-DTB cysteine labelling (DMSO/compound) (log2 ratio); higher = stronger cysteine engagement by compound
Conditions: treatment time: 4 h, cell line lysate: HEK293T
Protocol: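 IA-DTB competitive cysteine chemoproteomics in HEK293T RIPA lysate. Lysates were treated with compound 29 or 30 at 50 or 200 µM for 4 h, then IA-DTB (500 µM, 1 h), trypsin-digested, NeutrAvidin-enriched and analysed by diaPASEF. Competition ratio = intensity DMSO / intensity compound (n=4 treated, n=64 DMSO); binding: mean log2 CR ≥ 1 and p ≤ 0.05 plus QC filters. Target is the cysteine site.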

Target | log2 mean competition ratio (50 µM) | log2 mean competition ratio (200 µM)
SLC25A22 C271 (UniProt Q9H936) | 0.0144 | 0.199
SLC27A4 C560 (UniProt Q6P1M0) | 0.43 | 0.0497
SMYD4 C296 (UniProt Q8IYR2) | 0.0141 | 0.0448
SOS1 C167 (UniProt Q07889) | -0.341 | -0.104
SLMAP C286 (UniProt Q14BN4) | -0.395 | -0.036
SLC25A5 C57 (UniProt P05141) | 0.0501 | -0.0192
SLC6A11 C28 | -0.384 | 0.00197
SMG1 C3138 (UniProt Q96Q15) | 0.153 | 0.374
SLCO2A1 C143 | -0.363 | 0.462
SNRNP200 C428 (UniProt O75643) | -0.229 | -0.054
